Measurements reported in PubChem BioAssay AID504834 (National Center for Advancing Translational Sciences (NCATS), 2011).
The whole screen tested about 320,000 compounds, of which about 22,000 (6.9%) were called active. Inconclusive results, whose numbers are uncertain, are shown with a selection of clear calls. Calls follow the shape of the dose curve; as a rule, active = well fitted inhibition curve with a large enough effect; inconclusive = small, poorly fitted or top-dose-only effect, or another doubt; inactive = no such curve, though single readings can be large or run the other way. Potencies of inconclusive entries are doubtful fits and often do not repeat.

test: Primary qHTS for delayed death inhibitors of the malarial parasite plastid, 96 hour incubation; conditions: P. falciparum luciferase reporter growth; series mostly up to 28.7 µM
Summary of the method: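 Two parasite generations (96 h, 37 C, 5% CO2) of compound exposure in infected erythrocytes (0.05% parasitemia, 2% hematocrit). Luciferase-reporter P. falciparum; decreased luminescence indicates inhibited growth, aimed at apicoplast-acting delayed death.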
Potency is read from the fitted curve at half-maximal effect.

SMILES	Potency
Cc1cc(-c2ccc(/C=N/n3cnnc3)o2)c(C)c([N+](=O)[O-])c1	inconclusive: 1.85 µM [inhibitor, single point]
O=[N+]([O-])c1ccc(-c2ccc(C=Nc3cccc4ccccc34)o2)cc1	inactive
O=C(NC(=O)c1ccccc1)Nc1ccc(-c2cnco2)cc1	inactive
Cc1ccc(NC(=O)CC(C)S(=O)(=O)c2ccc3c(c2)NC(=O)CO3)cc1C (stereo not given)	active: 11.7 µM
CC1CN(C(=O)c2cc(Br)c(Br)s2)CC(C)O1 (stereo not given)	inconclusive: 14.7 µM [inhibitor, single point]
CCOCCn1c(CN2CCC(Cc3ccccc3)CC2)nc2c1c(=O)n(C)c(=O)n2C	inconclusive: 11.7 µM [inhibitor, partial curve]
CC(C)(C)SCCNS(=O)(=O)c1ccc(Cl)cc1	inconclusive: 4.15 µM [inhibitor, partial curve, poor fit]
CCOc1ccc(S(=O)(=O)N2CCCC(C(=O)N3CCOCC3)C2)cc1 (stereo not given)	inconclusive: 18.5 µM [inhibitor, single point]
O=S(=O)(c1ccc2nc(N3CCN(c4ccccc4)CC3)ccc2c1)N1CCCCC1	inconclusive: 1.17 µM [inhibitor, full curve, poor fit]
Cc1ccc(Cl)c2sc(N3CCN(C(=O)c4ccco4)CC3)nc12	inconclusive: 11.7 µM [inhibitor, single point]
COC(=O)[C@@H]1CC[C@H](C)[C@@H](c2ccc(C)cc2)N1C(=O)c1ccc(/C=N/OC[C@@H](O)[C@H]2O[C@@H]3OC(C)(C)O[C@@H]3[C@H]2O)cc1	inconclusive: 9.28 µM [inhibitor, partial curve, poor fit]
COc1ccc(/C=N/NC(=O)CCc2n[nH]c(=O)[nH]c2=O)cc1O	inactive
CC(C)(C)NS(=O)(=O)c1ccc(OCC(=O)N2CCN(Cc3ccccc3)CC2)cc1	inconclusive: 16.5 µM [inhibitor, partial curve, poor fit]
COc1ccc(C(=O)/C=C/C(=O)N(CC(=O)NC2CCCCC2)CC2CCCO2)c(O)c1 (stereo not given)	inactive
Cc1cccc(NC(=O)c2ccc(N(C)C3CCCCC3)c([N+](=O)[O-])c2)n1	inconclusive: 18.5 µM [inhibitor, single point]
O=C(CSc1nnc(NC(=O)C2CC(=O)N(c3ccc(F)cc3)C2)s1)NCc1ccco1 (stereo not given)	inconclusive: 18.5 µM [inhibitor, single point]
O=C(NC1CCCCC1)C1CCN(c2cnccn2)CC1	inconclusive: 10.4 µM [inhibitor, single point]
Cc1ccccc1C(=O)NCC(=O)OC(C)C(=O)Nc1ccnn1C(C)C (stereo not given)	inconclusive: 0.738 µM [inhibitor, full curve, poor fit]
COc1ccccc1NC(CC(=O)c1ccccc1)C(=O)OCC(=O)c1ccc(C)cc1 (stereo not given)	inconclusive: 10.4 µM [inhibitor, single point]
COc1ccc(NC(=O)C2CCN(S(C)(=O)=O)CC2)c(OC)c1	inconclusive: 10.4 µM [inhibitor, single point]

SMILES	Potency
Cc1ccc(OCC(=O)Nc2nc(-c3ccccn3)cs2)c(C)c1	inconclusive: 9.28 µM [inhibitor, single point]
O=C(NCC1CCCO1)c1cccc2ccccc12 (stereo not given)	inconclusive: 3.29 µM [inhibitor, partial curve, poor fit]
CSc1ncc(C(=O)Nc2ccc(C(C)=O)cc2)c(-c2ccccc2)n1	inconclusive: 11.7 µM [inhibitor, partial curve]
CCN(CC)S(=O)(=O)c1ccc2oc(C(=O)Nc3ccc(OC)cc3OC)c(C)c2c1	inconclusive: 0.657 µM [inhibitor, full curve, poor fit]
COc1ccc(CN(C)C(=O)c2ccc(COc3ccccc3)cc2)c(OC)c1	inconclusive: 10.4 µM [inhibitor, single point]
O=C(NCc1cccnc1)c1ccccc1[N+](=O)[O-]	inconclusive: 2.33 µM [inhibitor, full curve]
CCc1ccc2[nH]c(=O)c(CN(CCN(CC)CC)C(=O)NC3CCCCC3)cc2c1	inactive
COc1ccc(CCNc2ccc(C(CC(N)=O)NC(=O)c3ccc(Br)cc3)cc2[N+](=O)[O-])cc1 (stereo not given)	inconclusive: 10.4 µM [inhibitor, partial curve, poor fit]
CC(C)CCNC(=O)C1CCN(Cc2cccc(OCc3ccccc3)c2)CC1	inconclusive: 18.5 µM [inhibitor, single point]
CC12c3ccccc3C(c3ccccc31)C1C(=O)N(Cc3cccnc3)C(=O)C12 (stereo not given)	inconclusive: 18.5 µM [inhibitor, single point]
CCN(C(=O)COC(=O)c1cnc(C)cn1)C1CCS(=O)(=O)C1 (stereo not given)	inactive
N#Cc1ccsc1NC(=O)CSc1nnnn1-c1ccc(O)cc1	inactive
O=c1c2cnn(-c3ccc(F)cc3)c2ncn1Cc1ccc(F)cc1	inconclusive: 18.5 µM [inhibitor, single point]
O=C(c1ccco1)N(Cc1cccc(Cl)c1)C1CCS(=O)(=O)C1 (stereo not given)	inactive
O=C(/C=C/c1ccc(F)cc1)NC(=S)N1CCN(c2ccccn2)CC1	inconclusive: 11.7 µM [inhibitor, single point]
CSc1nc(NC(C)=O)nc(C)c1Br	inconclusive: 4.65 µM [inhibitor, partial curve, poor fit]
Cc1ccccc1C(=O)NNC(=S)Nc1cccc(C(F)(F)F)c1	inconclusive: 18.5 µM [inhibitor, single point]
COc1ccc(-c2cc(C(=O)N3CCN(c4ccccc4OC)CC3)no2)cc1	inconclusive: 14.7 µM [inhibitor, single point]
COc1ccccc1NC(=O)c1cc(Cl)nnc1Cl	inconclusive: 9.28 µM [inhibitor, partial curve, poor fit]
COc1ccccc1Sc1nc(-c2ccccn2)ncc1OC	inconclusive: 2.62 µM [inhibitor, full curve, poor fit]

In the list so far, three contain two or more sulfur atoms.
SMILES	Potency
CC(C)(C)SCCNS(=O)(=O)c1ccc(Cl)cc1	inconclusive: 4.15 µM [inhibitor, partial curve, poor fit]
O=C(CSc1nnc(NC(=O)C2CC(=O)N(c3ccc(F)cc3)C2)s1)NCc1ccco1 (stereo not given)	inconclusive: 18.5 µM [inhibitor, single point]
N#Cc1ccsc1NC(=O)CSc1nnnn1-c1ccc(O)cc1	inactive
